Measured values as given in the supplement of paper PMC10032668.
Some of the results follow. The list holds hits alone, and they repeat only in part.

Amino acid sequences for entries named in this document (tags omitted).
COX6C, P09669, UniProt P09669, whole entry: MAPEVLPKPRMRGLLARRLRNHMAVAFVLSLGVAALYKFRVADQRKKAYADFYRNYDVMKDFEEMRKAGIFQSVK
MSN, P26038, UniProt P26038, whole entry: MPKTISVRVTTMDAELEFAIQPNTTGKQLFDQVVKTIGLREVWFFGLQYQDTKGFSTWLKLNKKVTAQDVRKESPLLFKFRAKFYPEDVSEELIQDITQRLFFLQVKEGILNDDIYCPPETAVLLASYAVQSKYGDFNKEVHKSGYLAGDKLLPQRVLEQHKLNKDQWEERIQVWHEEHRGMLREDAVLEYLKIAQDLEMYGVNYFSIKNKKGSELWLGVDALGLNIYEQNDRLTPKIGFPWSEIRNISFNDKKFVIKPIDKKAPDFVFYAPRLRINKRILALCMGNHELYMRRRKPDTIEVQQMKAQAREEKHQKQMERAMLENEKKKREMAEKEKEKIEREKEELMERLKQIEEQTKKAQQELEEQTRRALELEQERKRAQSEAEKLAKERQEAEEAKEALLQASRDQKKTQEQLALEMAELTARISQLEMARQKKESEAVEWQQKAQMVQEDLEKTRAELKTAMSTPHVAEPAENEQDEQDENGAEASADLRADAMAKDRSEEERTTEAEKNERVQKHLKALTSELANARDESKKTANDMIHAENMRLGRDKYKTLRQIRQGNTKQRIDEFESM
SNRPD2, P62316, UniProt P62316, whole entry: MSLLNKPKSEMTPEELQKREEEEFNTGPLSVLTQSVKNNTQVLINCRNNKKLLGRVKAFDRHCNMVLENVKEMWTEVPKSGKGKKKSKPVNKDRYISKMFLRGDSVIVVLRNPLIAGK
CD2AP, Q9Y5K6, UniProt Q9Y5K6, whole entry: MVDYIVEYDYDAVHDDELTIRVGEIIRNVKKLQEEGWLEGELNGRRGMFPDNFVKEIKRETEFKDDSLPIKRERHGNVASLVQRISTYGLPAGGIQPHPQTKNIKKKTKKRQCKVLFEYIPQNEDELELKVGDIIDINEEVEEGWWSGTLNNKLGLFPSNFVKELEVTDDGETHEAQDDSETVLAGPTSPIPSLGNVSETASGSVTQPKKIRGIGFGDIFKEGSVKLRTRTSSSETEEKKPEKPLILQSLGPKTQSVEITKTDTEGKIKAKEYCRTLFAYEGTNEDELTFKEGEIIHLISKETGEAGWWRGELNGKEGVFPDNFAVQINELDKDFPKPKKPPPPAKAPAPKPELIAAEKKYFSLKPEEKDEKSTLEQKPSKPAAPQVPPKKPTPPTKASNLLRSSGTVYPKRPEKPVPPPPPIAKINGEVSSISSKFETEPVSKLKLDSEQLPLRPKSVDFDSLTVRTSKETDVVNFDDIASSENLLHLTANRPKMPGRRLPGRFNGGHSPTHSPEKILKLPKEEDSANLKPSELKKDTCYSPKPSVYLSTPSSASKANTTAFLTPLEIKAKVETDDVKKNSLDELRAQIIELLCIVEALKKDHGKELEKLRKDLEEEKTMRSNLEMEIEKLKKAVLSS
CUL1, Q13616, UniProt Q13616, whole entry: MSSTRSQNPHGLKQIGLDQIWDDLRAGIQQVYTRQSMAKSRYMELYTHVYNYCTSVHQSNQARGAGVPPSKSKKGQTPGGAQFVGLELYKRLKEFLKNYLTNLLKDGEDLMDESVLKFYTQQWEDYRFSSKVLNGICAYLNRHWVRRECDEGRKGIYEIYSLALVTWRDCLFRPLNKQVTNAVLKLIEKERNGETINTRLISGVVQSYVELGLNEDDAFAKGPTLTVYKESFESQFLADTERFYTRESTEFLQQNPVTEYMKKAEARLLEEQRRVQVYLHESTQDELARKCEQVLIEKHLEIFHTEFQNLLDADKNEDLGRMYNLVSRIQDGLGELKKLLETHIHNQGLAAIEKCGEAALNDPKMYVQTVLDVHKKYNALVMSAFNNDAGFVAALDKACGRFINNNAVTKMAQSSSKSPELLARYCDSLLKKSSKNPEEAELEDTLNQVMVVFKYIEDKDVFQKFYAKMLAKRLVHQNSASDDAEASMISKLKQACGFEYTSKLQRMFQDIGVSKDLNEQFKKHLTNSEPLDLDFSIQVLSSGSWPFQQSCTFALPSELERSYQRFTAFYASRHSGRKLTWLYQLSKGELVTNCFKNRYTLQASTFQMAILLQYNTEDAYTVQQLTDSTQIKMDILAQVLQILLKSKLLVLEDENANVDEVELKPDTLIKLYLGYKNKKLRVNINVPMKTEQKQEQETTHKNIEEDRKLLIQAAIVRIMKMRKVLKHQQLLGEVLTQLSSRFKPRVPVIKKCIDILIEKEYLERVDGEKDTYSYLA
HAX1, O00165, UniProt O00165, whole entry: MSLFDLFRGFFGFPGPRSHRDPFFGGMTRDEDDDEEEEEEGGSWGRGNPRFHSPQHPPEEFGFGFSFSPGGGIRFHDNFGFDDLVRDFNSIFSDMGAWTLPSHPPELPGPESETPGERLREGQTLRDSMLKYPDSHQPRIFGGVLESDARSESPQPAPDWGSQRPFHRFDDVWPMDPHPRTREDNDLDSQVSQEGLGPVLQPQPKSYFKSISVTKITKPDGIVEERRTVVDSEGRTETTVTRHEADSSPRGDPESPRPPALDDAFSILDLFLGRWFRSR
HSPB1, P04792, UniProt P04792, whole entry: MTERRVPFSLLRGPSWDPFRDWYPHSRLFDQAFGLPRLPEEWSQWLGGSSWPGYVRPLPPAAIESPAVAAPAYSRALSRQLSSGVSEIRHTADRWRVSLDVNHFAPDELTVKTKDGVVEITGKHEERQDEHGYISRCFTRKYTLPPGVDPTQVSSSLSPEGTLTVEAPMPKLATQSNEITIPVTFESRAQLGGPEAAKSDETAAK
IPO8, O15397, UniProt O15397, whole entry: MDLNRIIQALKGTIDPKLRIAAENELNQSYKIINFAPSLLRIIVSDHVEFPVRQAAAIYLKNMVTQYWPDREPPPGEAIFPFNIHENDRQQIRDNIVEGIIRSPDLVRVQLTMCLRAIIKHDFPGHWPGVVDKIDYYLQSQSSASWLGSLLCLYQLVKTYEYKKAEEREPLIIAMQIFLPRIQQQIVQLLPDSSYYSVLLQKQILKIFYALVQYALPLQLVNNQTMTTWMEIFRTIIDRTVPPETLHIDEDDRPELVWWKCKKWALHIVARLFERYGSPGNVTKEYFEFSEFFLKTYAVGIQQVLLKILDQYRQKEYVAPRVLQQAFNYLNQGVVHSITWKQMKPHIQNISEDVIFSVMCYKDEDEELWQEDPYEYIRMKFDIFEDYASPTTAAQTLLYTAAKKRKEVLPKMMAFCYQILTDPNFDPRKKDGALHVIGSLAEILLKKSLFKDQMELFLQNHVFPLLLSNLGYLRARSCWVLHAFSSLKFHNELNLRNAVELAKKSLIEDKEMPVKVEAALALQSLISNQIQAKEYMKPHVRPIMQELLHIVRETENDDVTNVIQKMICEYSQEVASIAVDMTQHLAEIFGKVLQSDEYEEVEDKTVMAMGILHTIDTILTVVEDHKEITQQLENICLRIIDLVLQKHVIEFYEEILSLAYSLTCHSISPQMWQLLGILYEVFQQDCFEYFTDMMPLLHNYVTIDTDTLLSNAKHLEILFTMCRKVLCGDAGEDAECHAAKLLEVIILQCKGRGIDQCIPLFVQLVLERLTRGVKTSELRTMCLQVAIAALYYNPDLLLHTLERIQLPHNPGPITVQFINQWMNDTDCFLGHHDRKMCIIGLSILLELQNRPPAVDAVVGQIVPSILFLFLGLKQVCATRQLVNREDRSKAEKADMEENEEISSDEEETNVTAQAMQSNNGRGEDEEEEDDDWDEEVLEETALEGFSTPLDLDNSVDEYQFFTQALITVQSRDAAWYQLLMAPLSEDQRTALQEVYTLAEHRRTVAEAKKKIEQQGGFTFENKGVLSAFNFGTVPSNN
NCAPD2, Q15021, UniProt Q15021, whole entry: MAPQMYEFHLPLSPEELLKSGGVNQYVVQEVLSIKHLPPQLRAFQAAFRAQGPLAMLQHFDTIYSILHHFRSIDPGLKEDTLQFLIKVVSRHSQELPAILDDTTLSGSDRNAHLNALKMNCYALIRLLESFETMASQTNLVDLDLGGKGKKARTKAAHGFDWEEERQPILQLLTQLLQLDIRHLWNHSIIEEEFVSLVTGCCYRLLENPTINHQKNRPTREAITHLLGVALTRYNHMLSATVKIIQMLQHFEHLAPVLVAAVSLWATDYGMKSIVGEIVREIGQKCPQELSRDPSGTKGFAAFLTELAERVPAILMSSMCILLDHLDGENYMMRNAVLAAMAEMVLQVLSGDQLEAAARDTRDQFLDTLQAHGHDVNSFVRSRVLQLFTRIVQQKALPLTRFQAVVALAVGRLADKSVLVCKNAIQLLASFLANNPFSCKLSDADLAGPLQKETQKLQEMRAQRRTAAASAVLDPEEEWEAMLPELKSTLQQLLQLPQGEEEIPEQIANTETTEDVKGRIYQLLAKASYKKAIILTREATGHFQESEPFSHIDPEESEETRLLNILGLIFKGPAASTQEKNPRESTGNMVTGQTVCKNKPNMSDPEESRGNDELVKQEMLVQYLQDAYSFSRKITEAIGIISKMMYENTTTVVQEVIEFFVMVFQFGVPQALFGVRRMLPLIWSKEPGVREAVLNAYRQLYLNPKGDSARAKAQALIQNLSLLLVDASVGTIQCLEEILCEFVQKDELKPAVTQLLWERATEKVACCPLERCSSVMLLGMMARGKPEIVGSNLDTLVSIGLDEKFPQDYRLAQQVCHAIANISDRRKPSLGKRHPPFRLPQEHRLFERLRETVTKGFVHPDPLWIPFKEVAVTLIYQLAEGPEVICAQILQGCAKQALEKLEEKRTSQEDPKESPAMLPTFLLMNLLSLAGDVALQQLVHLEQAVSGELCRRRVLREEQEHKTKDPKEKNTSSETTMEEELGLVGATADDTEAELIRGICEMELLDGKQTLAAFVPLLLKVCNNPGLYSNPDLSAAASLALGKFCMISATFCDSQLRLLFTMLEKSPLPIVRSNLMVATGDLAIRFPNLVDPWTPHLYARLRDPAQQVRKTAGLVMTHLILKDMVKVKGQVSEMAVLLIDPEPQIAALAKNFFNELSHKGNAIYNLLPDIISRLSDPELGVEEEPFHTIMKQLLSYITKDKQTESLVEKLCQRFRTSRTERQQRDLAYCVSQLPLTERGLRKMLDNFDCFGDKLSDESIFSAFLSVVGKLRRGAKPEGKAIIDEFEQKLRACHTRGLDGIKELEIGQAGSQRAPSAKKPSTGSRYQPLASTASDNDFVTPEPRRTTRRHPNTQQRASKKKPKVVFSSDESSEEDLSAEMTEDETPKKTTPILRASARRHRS
POLR1E, Q9GZS1, UniProt Q9GZS1, whole entry: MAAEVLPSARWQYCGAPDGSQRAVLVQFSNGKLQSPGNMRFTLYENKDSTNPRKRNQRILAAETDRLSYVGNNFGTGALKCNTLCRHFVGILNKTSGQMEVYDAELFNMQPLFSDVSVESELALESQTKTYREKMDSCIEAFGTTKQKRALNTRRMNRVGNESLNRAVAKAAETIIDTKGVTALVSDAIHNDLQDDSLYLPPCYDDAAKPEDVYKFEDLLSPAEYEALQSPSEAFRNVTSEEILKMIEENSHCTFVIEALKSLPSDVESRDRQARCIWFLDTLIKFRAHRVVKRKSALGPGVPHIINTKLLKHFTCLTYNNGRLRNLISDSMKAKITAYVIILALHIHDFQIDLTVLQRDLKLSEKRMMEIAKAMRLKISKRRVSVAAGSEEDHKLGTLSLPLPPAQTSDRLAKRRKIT

Experiments:
Experiment in all cases: PRISMA enrichment of interactor (LFQ) in peptide spot vs all other peptide spots (log2 fold change); higher = stronger / more specific binding of the interactor to the peptide
ABCD3, P28288 = biological target: ABCD3, P28288
Method: (§1)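 PRISMA: 15-aa overlapping tiles (offset 8 aa) of 60 microproteins, plus SOS1/GLUT1 control peptides, were spot-synthesized on cellulose membranes in triplicate. Membranes were incubated with benzonase-treated HEK293T lysate, and bound proteins were identified by LC-MS/MS with LFQ. Enrichment is the log2 fold change of each protein in one spot versus all other spots. Only interactors passing the significance cutoff are listed.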

CIRBP, Q14011 = biological target: CIRBP, Q14011
Method: as §1

COX6C, P09669 = biological target: COX6C, P09669
Method: as §1

MSN, P26038 = biological target: MSN, P26038
Method: as §1

ORC2, Q13416 = biological target: ORC2, Q13416
Method: as §1

POU2F1, P14859 = biological target: POU2F1, P14859
Method: as §1

SNRPD2, P62316 = biological target: SNRPD2, P62316
Method: as §1

TBC1D10B, Q4KMP7 = biological target: TBC1D10B, Q4KMP7
Method: as §1

VPS52, Q8N1B4 = biological target: VPS52, Q8N1B4
Method: as §1

AATF, Q9NY61 = biological target: AATF, Q9NY61
Method: as §1

ACOT9, Q9Y305 = biological target: ACOT9, Q9Y305
Method: as §1

AMMECR1, Q9Y4X0 = biological target: AMMECR1, Q9Y4X0
Method: as §1

ASNS, P08243 = biological target: ASNS, P08243
Method: as §1

ATIC, P31939 = biological target: ATIC, P31939
Method: as §1

BCKDK, O14874 = biological target: BCKDK, O14874
Method: as §1

BIN1, O00499 = biological target: BIN1, O00499
Method: as §1

BRIX1, Q8TDN6 = biological target: BRIX1, Q8TDN6
Method: as §1

CAPZA1, P52907 = biological target: CAPZA1, P52907
Method: as §1

CBX4, O00257 = biological target: CBX4, O00257
Method: as §1

CC2D1A, Q6P1N0 = biological target: CC2D1A, Q6P1N0
Method: as §1

CD2AP, Q9Y5K6 = biological target: CD2AP, Q9Y5K6
Method: as §1

CHD1, O14646 = biological target: CHD1, O14646
Method: as §1

CHMP1A, Q9HD42 = biological target: CHMP1A, Q9HD42
Method: as §1

CPSF2, Q9P2I0 = biological target: CPSF2, Q9P2I0
Method: as §1

CUL1, Q13616 = biological target: CUL1, Q13616
Method: as §1

EXOC5, O00471 = biological target: EXOC5, O00471
Method: as §1

FANCI, Q9NVI1 = biological target: FANCI, Q9NVI1
Method: as §1

FBXO3, Q9UK99 = biological target: FBXO3, Q9UK99
Method: as §1

FKBP9, O95302 = biological target: FKBP9, O95302
Method: as §1

GATA6, Q92908 = biological target: GATA6, Q92908
Method: as §1

GRB2, P62993 = biological target: GRB2, P62993
Method: as §1

GTPBP10, A4D1E9 = biological target: GTPBP10, A4D1E9
Method: as §1

HAX1, O00165 = biological target: HAX1, O00165
Method: as §1

HSPB1, P04792 = biological target: HSPB1, P04792
Method: as §1

HSPH1, Q92598 = biological target: HSPH1, Q92598
Method: as §1

IPO8, O15397 = biological target: IPO8, O15397
Method: as §1

KLF16, Q9BXK1 = biological target: KLF16, Q9BXK1
Method: as §1

LYPLAL1, Q5VWZ2 = biological target: LYPLAL1, Q5VWZ2
Method: as §1

MOV10, Q9HCE1 = biological target: MOV10, Q9HCE1
Method: as §1

MRPL43, Q8N983 = biological target: MRPL43, Q8N983
Method: as §1

MRPL58, Q14197 = biological target: MRPL58, Q14197
Method: as §1

NCAPD2, Q15021 = biological target: NCAPD2, Q15021
Method: as §1

PKP2, Q99959 = biological target: PKP2, Q99959
Method: as §1

POLR1E, Q9GZS1 = biological target: POLR1E, Q9GZS1
Method: as §1

POLR2J3, Q9H1A7 = biological target: POLR2J3, Q9H1A7
Method: as §1

PPHLN1, Q8NEY8 = biological target: PPHLN1, Q8NEY8
Method: as §1

PPIG, Q13427 = biological target: PPIG, Q13427
Method: as §1

PWP1, Q13610 = biological target: PWP1, Q13610
Method: as §1

RNASEH1, O60930 = biological target: RNASEH1, O60930
Method: as §1

SLC25A22, Q9H936 = biological target: SLC25A22, Q9H936
Method: as §1

SUPT4H1, P63272 = biological target: SUPT4H1, P63272
Method: as §1

TMEM177, Q53S58 = biological target: TMEM177, Q53S58
Method: as §1

TXLNG, Q9NUQ3 = biological target: TXLNG, Q9NUQ3
Method: as §1

XPO4, Q9C0E2 = biological target: XPO4, Q9C0E2
Method: as §1

ZNF689 = biological target: ZNF689
Method: as §1

B1: SNHG8 (peptide)
chain: LKFTSMRGLECSLGR
PRISMA enrichment of interactor (log2) (ABCD3, P28288): 5.55
PRISMA enrichment of interactor (log2) (CIRBP, Q14011): 5.09
PRISMA enrichment of interactor (log2) (COX6C, P09669): 4.4
PRISMA enrichment of interactor (log2) (MSN, P26038): 5.47
PRISMA enrichment of interactor (log2) (ORC2, Q13416): 5.36
PRISMA enrichment of interactor (log2) (POU2F1, P14859): 3.88
PRISMA enrichment of interactor (log2) (SNRPD2, P62316): 5.04
PRISMA enrichment of interactor (log2) (TBC1D10B, Q4KMP7): 6.02
PRISMA enrichment of interactor (log2) (VPS52, Q8N1B4): 7.7

B2: SOS1_MUT_2 (peptide)
chain: EVPVPAPVAPARRP
PRISMA enrichment of interactor (log2) (AATF, Q9NY61): 6.39
PRISMA enrichment of interactor (log2) (ACOT9, Q9Y305): 5.18
PRISMA enrichment of interactor (log2) (AMMECR1, Q9Y4X0): 4.15
PRISMA enrichment of interactor (log2) (ASNS, P08243): 6.01
PRISMA enrichment of interactor (log2) (ATIC, P31939): 4.06
PRISMA enrichment of interactor (log2) (BCKDK, O14874): 6.51
PRISMA enrichment of interactor (log2) (BIN1, O00499): 4.27
PRISMA enrichment of interactor (log2) (BRIX1, Q8TDN6): 4.56
PRISMA enrichment of interactor (log2) (CAPZA1, P52907): 4.29
PRISMA enrichment of interactor (log2) (CBX4, O00257): 4.38
PRISMA enrichment of interactor (log2) (CC2D1A, Q6P1N0): 5.53
PRISMA enrichment of interactor (log2) (CD2AP, Q9Y5K6): 6.6
PRISMA enrichment of interactor (log2) (CHD1, O14646): 5.33
PRISMA enrichment of interactor (log2) (CHMP1A, Q9HD42): 5.48
PRISMA enrichment of interactor (log2) (CPSF2, Q9P2I0): 5.24
PRISMA enrichment of interactor (log2) (CUL1, Q13616): 4.15
PRISMA enrichment of interactor (log2) (EXOC5, O00471): 4.1
PRISMA enrichment of interactor (log2) (FANCI, Q9NVI1): 9.97
PRISMA enrichment of interactor (log2) (FBXO3, Q9UK99): 3.89
PRISMA enrichment of interactor (log2) (FKBP9, O95302): 4.56
PRISMA enrichment of interactor (log2) (GATA6, Q92908): 5.81
PRISMA enrichment of interactor (log2) (GRB2, P62993): 5.7
PRISMA enrichment of interactor (log2) (GTPBP10, A4D1E9): 9.77
PRISMA enrichment of interactor (log2) (HAX1, O00165): 6.04
PRISMA enrichment of interactor (log2) (HSPB1, P04792): 3.95
PRISMA enrichment of interactor (log2) (HSPH1, Q92598): 5.87
PRISMA enrichment of interactor (log2) (IPO8, O15397): 4.68
PRISMA enrichment of interactor (log2) (KLF16, Q9BXK1): 4.18
PRISMA enrichment of interactor (log2) (LYPLAL1, Q5VWZ2): 4.92
PRISMA enrichment of interactor (log2) (MOV10, Q9HCE1): 5.15
PRISMA enrichment of interactor (log2) (MRPL43, Q8N983): 5.1
PRISMA enrichment of interactor (log2) (MRPL58, Q14197): 5.45
PRISMA enrichment of interactor (log2) (NCAPD2, Q15021): 5.4
PRISMA enrichment of interactor (log2) (PKP2, Q99959): 4.17
PRISMA enrichment of interactor (log2) (POLR1E, Q9GZS1): 6.63
PRISMA enrichment of interactor (log2) (POLR2J3, Q9H1A7): 8
PRISMA enrichment of interactor (log2) (PPHLN1, Q8NEY8): 4.16
PRISMA enrichment of interactor (log2) (PPIG, Q13427): 4.35
PRISMA enrichment of interactor (log2) (PWP1, Q13610): 5.97
PRISMA enrichment of interactor (log2) (RNASEH1, O60930): 5.78
PRISMA enrichment of interactor (log2) (SLC25A22, Q9H936): 6
PRISMA enrichment of interactor (log2) (SUPT4H1, P63272): 5.48
PRISMA enrichment of interactor (log2) (TMEM177, Q53S58): 8.2
PRISMA enrichment of interactor (log2) (TXLNG, Q9NUQ3): 5.51
PRISMA enrichment of interactor (log2) (XPO4, Q9C0E2): 3.9
PRISMA enrichment of interactor (log2) (ZNF689): 7.37
